Where a chain is given by its changes, count along the chain named. Names and notes keep the numbering of the source. No constants are given. Whether binding was seen depends on the method and setting. Binding seen in cells or lysates may run through a third protein. Some binding calls cover weakened binding; strength is not graded here.
B1: NEMF R86S (protein, UniProt Q8CCP0 1-1064)
chain: MKSRFSTVDLRAVLAELNASLLGMRVNNVYDVDNKTYLIRLQKPDFKATLLLESGIRIHTTEFEWPKNMMPSSFAMKCRKHLKSRSLVSAKQLGVDRIVDFQFGSDEAAYHLIIELYDRGNIVLTDYEYLILNILRFRTDEADDVKFAVRERYPIDHARAAEPLLTLERLTEVIAAAPKGEVLKRVLNPLLPYGPALIEHCLIESGFSGNAKVDEKLESKDIEKILVCVQRAEDYLRKTSNFNGKGYIIQKREAKPSLDADKPAEDILTYEEFHPFLFSQHLQCPYIEFESFDKAVDEFYSKIEGQKIDLKALQQEKQALKKLDNVRKDHENRLEALQQAQEIDKLKGELIEMNLQIVDRAIQVVRSALANQIDWTEIGVIVKEAQAQGDPVACAIKELKLQTNHVTMLLRNPYLLSEEEDGDGDASIENSDAEAPKGKKKKQKNKQLQKPQKNKPLLVDVDLSLSAYANAKKYYDHKRYAAKKTQRTVEAAEKAFKSAEKKTKQTLKEVQTVTSIQKARKVYWFEKFLWFISSENYLIIGGRDQQQNEIIVKRYLTPGDIYVHADLHGATSCVIKNPTGEPIPPRTLTEAGTMALCYSAAWDARVITSAWWVYHHQVSKTAPTGEYLTTGSFMIRGKKNFLPPSYLMMGFSFLFKVDESCVWRHRGERKVRVQDEDMETLTSCTSELMAEEMEQLEGGDSSEEETEELHGMPGDVELMTQVDQEDIAVHSGRDELSSEDGEAKAVTKDQEPIGEMKEEEEDTFEYPDTTIDLSHLQSQRPLQKLAPREESLNSNDSKSQGRRHLSAKERREMKKKKLPCESGDLEVIEEKDKERESAVHTEAYQNTSKNVAAGQPMKRGQKSKMKKMKEKYKDQDDEDRELIMKLLASAGSNKEEKGKKGKKGKPKDEPVKKPPQKPRGGQRVLDVVKEPPSLQVLAHDLQDLAVDDPHDDKEEHDLDQQGNEENLFDSLTGQPHPEDVLMFAIPICAPYTIMTNYKYKVKLTPGVQKKGKAAKTALNSFMHSKEATAREKDLFRSVKDTDLSRNIPGKVKVSAPNLLHVKRK
B2: Nuclear Export Mediator Factor (NEMF), wild type (protein, UniProt Q8CCP0 1-1064)
chain: B1 chain with S86R

Protein sequences, listed by entry. Tags and fused reporters are not part of them.
UniProt P70168: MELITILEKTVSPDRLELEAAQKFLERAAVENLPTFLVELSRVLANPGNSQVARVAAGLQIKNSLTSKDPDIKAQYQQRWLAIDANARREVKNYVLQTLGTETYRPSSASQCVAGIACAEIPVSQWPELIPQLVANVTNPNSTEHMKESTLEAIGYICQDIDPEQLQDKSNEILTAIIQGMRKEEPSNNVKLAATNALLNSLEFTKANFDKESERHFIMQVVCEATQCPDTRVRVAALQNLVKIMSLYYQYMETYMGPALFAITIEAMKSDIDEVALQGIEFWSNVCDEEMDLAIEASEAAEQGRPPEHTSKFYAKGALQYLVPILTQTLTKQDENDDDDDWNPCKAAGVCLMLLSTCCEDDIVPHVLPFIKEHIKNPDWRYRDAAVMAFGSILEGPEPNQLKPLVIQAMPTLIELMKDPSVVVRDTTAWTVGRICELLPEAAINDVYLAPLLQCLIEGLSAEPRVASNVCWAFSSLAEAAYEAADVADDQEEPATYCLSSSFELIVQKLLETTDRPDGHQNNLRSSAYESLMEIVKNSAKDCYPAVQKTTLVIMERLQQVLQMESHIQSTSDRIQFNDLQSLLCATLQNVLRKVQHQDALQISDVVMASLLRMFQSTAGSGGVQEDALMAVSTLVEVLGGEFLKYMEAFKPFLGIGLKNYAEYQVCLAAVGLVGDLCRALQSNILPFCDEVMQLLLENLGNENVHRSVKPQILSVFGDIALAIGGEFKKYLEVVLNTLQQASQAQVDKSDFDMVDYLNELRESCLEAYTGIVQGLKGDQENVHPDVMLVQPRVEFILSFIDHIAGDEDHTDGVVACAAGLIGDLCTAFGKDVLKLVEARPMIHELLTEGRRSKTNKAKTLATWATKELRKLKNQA

Molecular target: Importin-β (mouse (endogenous in MEFs)) (UniProt P70168)
Experiment: proximity ligation; DuoLink in situ PLA on fixed (4% paraformaldehyde), Triton X-100 permeabilised WT and Nemf^R86S MEFs; primary antibodies to NEMF and Importin-β; mean PLA frequency and intensity by confocal imaging

Row | Binder | binding
1 | B1 | binds
2 | B2 | binds
